Test results taken from PubChem BioAssay AID493014 (National Center for Advancing Translational Sciences (NCATS), 2011).
The list shows a part of the results. These are further read-outs of the screen, such as a control signal, another cell line or another target. No call is given for them. Most of these compounds were active or inconclusive in the main read-out, so they are no random draw. Potencies come from curve fits of mixed quality, noted in brackets.

Assay: qHTS Assay to Find Inhibitors of Chronic Active B-Cell Receptor Signaling
Conditions: ABC-DLBCL IkBa-CBG/CBR reporter, luminescence ratio (green luciferase fused to IkBa over red control in TMD8 lymphoma cells), 4 h
Method in brief: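 TMD8 ABC-DLBCL cells carrying doxycycline-inducible green luciferase fused to IkappaBalpha plus unfused red luciferase were exposed to compounds (up to 46 uM) for 4 hrs at 37C. Activity came from the overlap-corrected green/red luminescence ratio.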

[1] = measured here: CBR red luminescence, cell number
[2] = measured here: IkBa-CBG green luminescence

| Structure (SMILES) | AC50 [1] | AC50 [2] |
| --- | --- | --- |
| CC(=O)Nc1ccc(Sc2ccccc2C(=O)O)c(C(=O)O)c1 | 3.55 µM [falling, partial curve, poor fit] |  |
| Fc1ccc(CCNC(=S)Nc2ccc(F)c(Cl)c2)cc1 | 31.6 µM [falling, single point] |  |
| CCc1ccccc1NC(=O)c1cc(-c2cccs2)on1 | 25.1 µM [falling, partial curve, poor fit] |  |
| Cc1nc(NC(=O)/C=C/c2ccccc2)sc1C(=O)Nc1cccc(Cl)c1 | 8.2 µM [falling, partial curve] |  |
| CSc1nnc(-c2ccccc2)n1N | 5.62 µM [rising, partial curve, poor fit] |  |
| CC1(C)c2ccccc2-c2nc3ccccc3cc2C1O (configuration not stated) | 4.47 µM [rising, partial curve, poor fit] |  |
| CC(=O)Nc1ccc(C(=O)OCC(=O)N2CCN(C(=O)c3ccco3)CC2)cc1 | 0.517 µM [rising, full curve, poor fit] |  |
| c1ccc(-c2cnc(-c3ccccc3)nc2)cc1 | 0.00517 µM [rising, full curve, poor fit] |  |
| CNC(=S)N/N=C/c1cn(CCOc2cccc(OC)c2)c2ccccc12 |  | 10.3 µM [falling, partial curve, poor fit] |
| COc1cccc(NC(=O)c2cnc(SCC(=O)N3CCOCC3)n(C)c2=O)c1 | 3.55 µM [falling, full curve] |  |
| COc1ccc(NC(=O)C(=O)N/N=C/c2cc(C)n(-c3cccc(Cl)c3Cl)c2C)c(OC)c1 | 2.59 µM [falling, full curve, poor fit] |  |
| COc1ccc(NC(=O)C#Cc2ccccc2)cc1OC | 3.55 µM [falling, partial curve, poor fit] |  |
| COc1ccc2c(c1)-c1ccccc1S(=O)(=O)N2C(C)=O | 11.2 µM [rising, partial curve] |  |
| O=c1/c(=C/c2ccccn2)sc2n1CN(c1ccccc1)CN=2 | 12.6 µM [falling, single point] |  |
| Cc1ccc(CN2CCNC(=O)C2CC(=O)O)o1 (configuration not stated) | 10.3 µM [rising, partial curve, poor fit] |  |
| N#Cc1ccc(N2Cc3ccccc3C2=NC(=O)c2cccnc2Cl)cc1 | 4.11 µM [rising, single point] |  |
| CC(C)Cc1nnc(NC(=O)CCC(=O)N2CCN(c3ccc([N+](=O)[O-])cc3)CC2)s1 | 14.1 µM [falling, single point] |  |
| Cc1ccc2nc(NC(=O)C3CCN(S(=O)(=O)c4cccnc4)CC3)sc2c1 |  | 15.8 µM [rising, partial curve, poor fit] |
| N/C(=N\OC(=O)c1ccc(F)cc1)c1ccccc1 | 14.1 µM [falling, single point] |  |
| Cc1ccc(Nc2nnc(SCC3CCCCO3)s2)cc1 (configuration not stated) | 9.2 µM [falling, single point] |  |
| COc1cccc(CN2CCN(Cc3cccc4c3OCO4)CC2CCO)c1 (configuration not stated) | 11.2 µM [falling, partial curve] |  |

| Structure (SMILES) | AC50 [1] | AC50 [2] |
| --- | --- | --- |
| CN(C)S(=O)(=O)N1CCCC(C(=O)c2ccc(-c3ccccc3)c(F)c2)C1 (configuration not stated) | 5.62 µM [rising, single point] |  |
| O=C(O)c1ccc(N2C(=O)c3cccc4cccc(c34)C2=O)cc1 | 35.5 µM [falling, single point] |  |
| COC(=O)c1ccc(NC(=O)C(=O)N2CCN(C(=S)Nc3cccc(C)c3C)CC2)cc1 | 16.4 µM [falling, single point] |  |
| CCCCc1c(C)nc2ccc(OC)cc2c1SCCC(=O)O | 5.62 µM [falling, single point] |  |
| COc1ccc(OC)c(-c2cc(C(=O)NC3CCCC3)c3ccccc3n2)c1 | 3.55 µM [rising, full curve, poor fit] |  |
| Cc1ccc(NC(=O)COc2ccccc2C(N)=O)cc1S(=O)(=O)N1CCCCCC1 | 29.1 µM [falling, single point] |  |
| COCCn1nnnc1C(c1ccc(OC)cc1)N1CCN(c2ccccc2F)CC1 (configuration not stated) | 32.6 µM [rising, single point] |  |
| CCOc1cccc2cc(-c3csc(NC(=O)CCC(=O)NCCN4CCCCC4C)n3)c(=O)oc12 (configuration not stated) | 0.224 µM [falling, full curve, poor fit] |  |
| CN(C)c1ccc(/C=N/NC(=O)c2ccc(Cl)cc2)cc1 | 2.51 µM [falling, partial curve, poor fit] |  |
| CN(C)C(=O)CSc1n[nH]c(=O)n1CCc1ccccc1 | 2.51 µM [falling, full curve, poor fit] |  |
| COc1ccc(OCc2cc(C(=O)N3C[C@H]4CC[C@H]3C4)no2)c(Cl)c1 | 35.5 µM [falling, single point] |  |
| Cc1cccc(N2CCN(C(=O)c3ccc4c(c3)c(C)c(C)n4C)CC2C)c1 (configuration not stated) | 35.5 µM [falling, single point] |  |
| Cc1ccn2cc(C(=O)Nc3cccc(C(=O)NC4CC4)c3)nc2c1 | 6.51 µM [falling, partial curve] |  |
| Cc1ccc(Nc2nc(N)nc(-c3oc4ccccc4c3C)n2)cc1 | 2.82 µM [rising, full curve] | 0.562 µM [falling, full curve] |
| C/C(CC(=O)Nc1cccc(Br)c1)=N\NC(=O)c1ccc(O)cc1O | 10 µM [falling, partial curve] |  |
| COc1cc(S(=O)(=O)Nc2cccc(C)c2)ccc1N=Cc1c(C)[nH]n(-c2ccccc2)c1=O |  | 20.6 µM [rising, partial curve, poor fit] |
| Cc1ccc(S(=O)(=O)Cn2nnnc2CN2CCCC3(CCCCC3)C2)cc1 | 29.1 µM [falling, single point] |  |
| Cc1nc(CCNC(=O)C2CCC(=O)N(Cc3ccc(Cl)cc3)C2)sc1C (configuration not stated) | 12.6 µM [falling, single point] |  |
| Cc1cccn2cc(CCNC(=O)c3ccc(Br)o3)nc12 | 20.6 µM [falling, partial curve] |  |
| O=S(=O)(c1ccc(NC(=S)N/N=C/c2ccc(N3CCOCC3)cc2)cc1)N1CCOCC1 | 16.4 µM [falling, partial curve] |  |
